Values from PubChem BioAssay AID504774 (Drosophila RNAi Screening Center, 2011)
Purpose: 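Genes required for cells to withstand methyl methanesulphonate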 (primary screen). Cell system: Drosophila Kc167 cells. Reagent: long dsRNA against Drosophila genes, about 0.25 µg dsRNA per well. Duration: about 6 days: 3 days knock-down, then 3 days with or without MMS. Challenge: methyl methanesulphonate 0.004% (w/v) for 3 days after knock-down. Read-out: 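ATP-dependent luminescence as a measure of live cells in MMS-exposed wells, quantile normalised within each plate, with replicate values also given as a mean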. Direction: mean viability with MMS: higher = more surviving cells after MMS.
In all, the deposit lists about 23,000 reagents; below is an unselected part of those that have a named target and a result. 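Values are quantile-normalised luminescence on an arbitrary scale; higher means more cells surviving MMS.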 The numbers tell different reagents against one gene apart. Further read-outs or replicates are left out here. No sequences are given here.

The first 4 records as a preview:
Target gene | dsRNA no. | mean viability with MMS
CG6836 | 1 | 3.54e6
Rtnl1 | 1 | 3.36e6
Rtnl1 | 2 | 3.81e6
Rtnl1 | 3 | 3.97e6

The list itself, from the start:
Target gene | dsRNA no. | mean viability with MMS
CG6836 | 1 | 3.54e6
Rtnl1 | 1 | 3.36e6
Rtnl1 | 2 | 3.81e6
Rtnl1 | 3 | 3.97e6
Rtnl1 | 4 | 3.44e6
epsilonCOP | 1 | 3.38e6
Eip78C | 1 | 2.99e6
Eip78C | 2 | 3.51e6
clumsy | 1 | 3.46e6
CG12842 (retired record) | 1 | 3.62e6
SkpE | 1 | 3.70e6
Rfk | 1 | 3.35e6
CG32104 | 1 | 3.34e6
CG32104 | 2 | 3.31e6
Zasp52 | 1 | 3.40e6
Zasp52 | 2 | 3.48e6
Sgp | 1 | 3.49e6
Non2 | 1 | 3.31e6
zld | 1 | 3.52e6
zld | 2 | 3.33e6
zld | 3 | 3.62e6
CG10163 | 1 | 3.50e6
bol | 1 | 3.49e6
bol | 2 | 3.45e6
bol | 3 | 3.40e6
NHP2 | 1 | 3.46e6
Spn28Db | 1 | 3.61e6
CG9338 | 1 | 3.53e6
CG5886 | 1 | 3.56e6
park | 1 | 3.47e6
Tg | 1 | 3.63e6
CG4822 | 1 | 3.60e6
CG33648 | 1 | 3.64e6
Sec22 | 1 | 3.24e6
CG13060 | 1 | 3.58e6
CG3108 | 1 | 3.60e6
Myo31DF | 1 | 3.51e6
Myo31DF | 2 | 3.30e6
Ppt1 | 1 | 3.44e6
CG11248 | 1 | 3.80e6
Acbp6 | 1 | 3.63e6
Mfe2 | 1 | 3.41e6
CG5819 | 1 | 3.36e6
CG31219 | 1 | 3.54e6
ETH | 1 | 3.44e6
CG31806 | 1 | 3.55e6
